Among the data in article PMC13083928, “ALS mutations disrupt self-association between the ubiquilin STI1 hydrophobic groove and internal placeholder sequences” (The EMBO Journal, 2026) are binding values, retold here.

By UniProt entry, the sequences of proteins in these tests, tags left out. Where a name states a change or a piece, a line headed by the entry shows the natural chain unless it says otherwise.
UniProt Q9UHD9: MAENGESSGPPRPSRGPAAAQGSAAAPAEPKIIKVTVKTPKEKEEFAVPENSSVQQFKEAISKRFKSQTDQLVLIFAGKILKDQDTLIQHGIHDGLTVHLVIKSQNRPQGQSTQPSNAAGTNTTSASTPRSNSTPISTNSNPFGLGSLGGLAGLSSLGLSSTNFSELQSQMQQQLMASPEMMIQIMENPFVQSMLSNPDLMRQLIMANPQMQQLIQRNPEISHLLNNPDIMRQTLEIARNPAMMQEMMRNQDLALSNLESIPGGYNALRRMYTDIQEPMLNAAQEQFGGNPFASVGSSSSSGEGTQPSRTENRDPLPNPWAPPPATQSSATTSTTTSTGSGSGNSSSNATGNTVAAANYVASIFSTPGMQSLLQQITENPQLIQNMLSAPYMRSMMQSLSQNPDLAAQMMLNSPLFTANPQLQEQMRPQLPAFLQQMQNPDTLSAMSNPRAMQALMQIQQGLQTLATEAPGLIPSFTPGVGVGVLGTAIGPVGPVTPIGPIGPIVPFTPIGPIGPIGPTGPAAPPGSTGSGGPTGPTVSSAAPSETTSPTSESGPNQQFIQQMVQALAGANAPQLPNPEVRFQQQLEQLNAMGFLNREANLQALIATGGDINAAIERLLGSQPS

Results are given in words; binding and its absence hold for the method and conditions named. Binding seen in cells or lysates may run through a third protein. Some results given as binding are weak or reduced against the parent protein; the word gives no strength. Tags and fused reporters may be left off the sequences shown.

This experiment addresses T1, 3xFLAG-Omp25 (pUdOM1.0) (UniProt P57105).
T1 sequence: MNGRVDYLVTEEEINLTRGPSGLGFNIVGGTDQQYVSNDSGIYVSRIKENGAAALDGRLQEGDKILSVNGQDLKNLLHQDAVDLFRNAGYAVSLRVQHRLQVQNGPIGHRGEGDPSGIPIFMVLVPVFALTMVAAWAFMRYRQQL
In words: co-IP + cross-linking; HEK cells co-transfected with HA-tagged UBQLN2 variants and FLAG-tagged Omp25 (CMV promoter); 1 mM DSP for 30 min, lysis in 1% NP-40, anti-FLAG immunoprecipitation, elution with 3xFLAG peptide, western blot. For orientation: A western blot detects proteins with antibodies after separation by electrophoresis.

Take “3xHA-UBQLN2 P189T (pUdOM1.0) (from UniProt Q9UHD9 1-624)”: the binding entry is reported as “binds”.
